{"source": "the supplement of paper PMC9015667", "note": "Where a name gives a salt, the structure may show the parent alone. Some of the results follow. Repeats are few or missing, and single values can be far off."}
{"test_system": "M238P (parental melanoma line)", "assay": "reduction in cell viability relative to untreated/vehicle; higher = more growth inhibition", "conditions": "200 nM; 72 h", "units": {"reduction in cell viability": "%"}}
{"compound": "CCOC(=O)N1CCN(/[N+]([O-])=N/Oc2cc(O/N=[N+](\\[O-])N3CCN(C(=O)OCC)CC3)c([N+](=O)[O-])cc2[N+](=O)[O-])CC1", "note": "[Double JS-K]", "reduction in cell viability": "< 0"}
{"compound": "O=c1[nH]cc(F)c(=O)[nH]1", "note": "[Fluorouracil]", "reduction in cell viability": "< 0"}
{"compound": "COc1ccc(Cn2ccc3ccc(C(=O)NO)cc32)cc1", "reduction in cell viability": "< 0"}
{"compound": "C[C@@H]1COC(Nc2ccc3ncnc(Nc4ccc(OCc5nccs5)c(Cl)c4)c3c2)=N1", "note": "[Varlitinib tosylate]", "reduction in cell viability": "< 0"}
{"compound": "O=C(Nc1ccccc1Br)N[C@@H]1CCN(c2ccc(C(F)(F)F)cn2)C1", "reduction in cell viability": "< 0"}
{"compound": "C[C@H](NC(=O)[C@@H](O)c1cc(F)cc(F)c1)C(=O)N[C@@H]1C(=O)N(C)c2ccccc2-c2ccccc21", "reduction in cell viability": "< 0"}
{"compound": "COc1cc2c(Nc3ccc(Cl)c(Cl)c3F)ncnc2cc1OC[C@@H]1C[C@@H]2CN(C)C[C@@H]2C1", "reduction in cell viability": "< 0"}
{"compound": "CC(C)Oc1ccc2c(=O)c(-c3ccccc3)coc2c1", "note": "[Ipriflavone]", "reduction in cell viability": "< 0"}
{"compound": "COc1cc(CNC(=O)CCCC/C=C/C(C)C)ccc1O", "note": "[Capsaicin]", "reduction in cell viability": "< 0"}
{"compound": "COc1ccc2c(c1)c(CC(=O)O)c(C)n2C(=O)c1ccc(Cl)cc1", "note": "[Indomethacin]", "reduction in cell viability": "< 0"}
{"compound": "N.N.O=C([O-])C[O-].[Pt+2]", "note": "[Nedaplatin]", "reduction in cell viability": "< 0"}
{"compound": "Cc1cc(OCCCS(C)(=O)=O)cc(C)c1-c1cccc(COc2ccc3c(c2)OC[C@H]3CC(=O)O)c1", "reduction in cell viability": "< 0"}
{"compound": "CC(C)c1onc(-c2c(Cl)cccc2Cl)c1COc1ccc(/C=C/c2cccc(C(=O)O)c2)c(Cl)c1", "reduction in cell viability": "< 0"}
{"compound": "COc1ccc(S(=O)(=O)Nc2cccnc2Nc2ccc(O)cc2)cc1", "reduction in cell viability": 50.2}
{"compound": "CCCCc1ncc(/C=C(\\Cc2cccs2)C(=O)O)n1Cc1ccc(C(=O)O)cc1", "note": "[Eprosartan mesylate]", "reduction in cell viability": "< 0"}
{"compound": "CC(C)(C)c1cc(C(C)(C)C)c(NC(=O)c2c[nH]c3ccccc3c2=O)cc1O", "note": "[Ivacaftor]", "reduction in cell viability": "< 0"}
{"compound": "CC(C)Oc1cc(Nc2nc(N[C@@H](C)c3ccc(F)cn3)ncc2Cl)n[nH]1", "reduction in cell viability": "< 0"}
{"compound": "CC(C[N+](C)(C)C)OC(N)=O", "note": "(stereo not drawn) [Bethanechol chloride]", "reduction in cell viability": "< 0"}
{"compound": "CS(=O)(=O)c1cccc(CNc2nc(Nc3ccc4c(c3)CCC(=O)N4)ncc2C(F)(F)F)c1", "reduction in cell viability": "< 0"}
{"compound": "Cn1c(N2CCCCS2(=O)=O)nc(C(=O)NCc2ccc(F)cc2)c(O)c1=O", "reduction in cell viability": "< 0"}
{"compound": "O=C(Nc1cccc(C(F)(F)F)c1)Nc1cc(S(=O)(=O)NC2CC2)ccc1-c1ccsc1", "reduction in cell viability": "< 0"}
{"compound": "COc1ccc(-c2cc3nccn3c(Nc3ncccc3C(N)=O)n2)cc1OC", "reduction in cell viability": "< 0"}
{"compound": "CC(=O)NC[C@H]1CN(c2ccc(N3CCOCC3)c(F)c2)C(=O)O1", "note": "[Linezolid]", "reduction in cell viability": "< 0"}
{"test_system": "M238R (matched melanoma line resistant to BRAF inhibitors)", "assay": "reduction in cell viability relative to untreated/vehicle; higher = more growth inhibition", "conditions": "200 nM; 72 h", "units": {"reduction in cell viability": "%"}}
{"compound": "Cc1c(C)n(Cc2ccc(-c3ccccc3C(=O)O)cc2)c2ccc(C(=O)N[C@@H](C)c3ccc([N+](=O)[O-])cc3)cc12", "reduction in cell viability": "< 0"}
{"compound": "O=c1cc(CN2CCOCC2)occ1OCCCCCSc1ccnc2cc(C(F)(F)F)ccc12", "reduction in cell viability": "< 0"}
{"compound": "O=c1ncn2nc(Sc3ccc(F)cc3F)ccc2c1-c1c(Cl)cccc1Cl", "reduction in cell viability": "< 0"}
{"compound": "CO[C@H]1/C=C/O[C@@]2(C)Oc3c(C)c(O)c4c(c3C2=O)C2=NC3(CCN(CC(C)C)CC3)NC2=C(NC(=O)/C(C)=C\\C=C\\[C@H](C)[C@H](O)[C@@H](C)[C@@H](O)[C@@H](C)[C@H](OC(C)=O)[C@@H]1C)C4=O", "note": "[Rifabutin]", "reduction in cell viability": "< 0"}
{"compound": "O=C(O)C1=CO[C@@H](O[C@@H]2O[C@H](CO)[C@@H](O)[C@H](O)[C@H]2O)[C@@H]2C(CO)=CC[C@H]12", "note": "[Geniposidic acid]", "reduction in cell viability": "< 0"}
{"compound": "O=c1c(-c2ccc(O)cc2)coc2cc(O)cc(O)c12", "note": "[Genistein]", "reduction in cell viability": "< 0"}
{"compound": "CC(CCc1ccc(O)cc1)NCCc1ccc(O)c(O)c1", "note": "(stereo not drawn) [Dobutamine]", "reduction in cell viability": "< 0"}
{"compound": "C=C1C(=O)[C@]23[C@H](O)[C@H]1CC[C@H]2[C@@]12CO[C@]3(O)[C@@H](O)[C@@H]1C(C)(C)CC[C@@H]2O", "note": "[Oridonin]", "reduction in cell viability": "< 0"}
{"compound": "CC(C)OC(=O)C(C(=O)OC(C)C)=C1SC=CS1", "note": "[Malotilate]", "reduction in cell viability": "< 0"}
{"compound": "COc1cc2c(cc1-c1c(C)noc1C)ncc1[nH]c(=O)n([C@H](C)c3ccccn3)c12", "reduction in cell viability": "< 0"}
{"compound": "Oc1ccc([C@@H]2Oc3ccc(O)cc3[C@@H]3CCC[C@@H]32)cc1", "note": "[Erteberel]", "reduction in cell viability": "< 0"}
{"compound": "CN1CCN(c2c(F)cc3c(=O)c(C(=O)O)cn(CCF)c3c2F)CC1", "note": "[Fleroxacin]", "reduction in cell viability": "< 0"}
{"compound": "COc1cccc2cc(-c3nc([C@H]4CC[C@H](C(=O)O)CC4)n4ncnc(N)c34)[nH]c12", "reduction in cell viability": "< 0"}
{"compound": "O=c1c(O)c(-c2ccc(O)c(O)c2)oc2cc(O)cc(O)c12", "note": "[Quercetine]", "reduction in cell viability": "< 0"}
{"compound": "NCC(=O)Nc1ccc(-n2nc(C(F)(F)F)cc2-c2ccc3c(ccc4ccccc43)c2)cc1", "reduction in cell viability": "< 0"}
{"compound": "CC(C)C[C@@H](N)[C@H](O)C(=O)N[C@H](C(=O)N[C@H](C(=O)N[C@@H](CC(=O)O)C(=O)O)C(C)C)C(C)C", "note": "[Amastatin]", "reduction in cell viability": "< 0"}
{"compound": "C/C=C/C[C@@H](C)C(=O)[C@H]1C(=O)N[C@@H](C(C)C)C(=O)N(C)CC(=O)N(C)[C@@H](CC(C)C)C(=O)N[C@@H](C(C)C)C(=O)N(C)[C@@H](CC(C)C)C(=O)N[C@@H](C)C(=O)N[C@H](C)C(=O)N(C)[C@@H](CC(C)C)C(=O)N(C)[C@@H](CC(C)C)C(=O)N(C)[C@@H](C(C)C)C(=O)N1C", "note": "[Valspodar]", "reduction in cell viability": "< 0"}
{"compound": "CCOC(=O)N1CCN(/[N+]([O-])=N/Oc2cc(O/N=[N+](\\[O-])N3CCN(C(=O)OCC)CC3)c([N+](=O)[O-])cc2[N+](=O)[O-])CC1", "note": "[Double JS-K]", "reduction in cell viability": "< 0"}
{"compound": "O=c1[nH]cc(F)c(=O)[nH]1", "note": "[Fluorouracil]", "reduction in cell viability": 3.47}
{"compound": "COc1ccc(Cn2ccc3ccc(C(=O)NO)cc32)cc1", "reduction in cell viability": "< 0"}
{"compound": "C[C@@H]1COC(Nc2ccc3ncnc(Nc4ccc(OCc5nccs5)c(Cl)c4)c3c2)=N1", "note": "[Varlitinib tosylate]", "reduction in cell viability": "< 0"}
{"compound": "O=C(Nc1ccccc1Br)N[C@@H]1CCN(c2ccc(C(F)(F)F)cn2)C1", "reduction in cell viability": "< 0"}
{"compound": "C[C@H](NC(=O)[C@@H](O)c1cc(F)cc(F)c1)C(=O)N[C@@H]1C(=O)N(C)c2ccccc2-c2ccccc21", "reduction in cell viability": "< 0"}
{"compound": "COc1cc2c(Nc3ccc(Cl)c(Cl)c3F)ncnc2cc1OC[C@@H]1C[C@@H]2CN(C)C[C@@H]2C1", "reduction in cell viability": "< 0"}
{"compound": "CC(C)Oc1ccc2c(=O)c(-c3ccccc3)coc2c1", "note": "[Ipriflavone]", "reduction in cell viability": "< 0"}
{"compound": "COc1cc(CNC(=O)CCCC/C=C/C(C)C)ccc1O", "note": "[Capsaicin]", "reduction in cell viability": "< 0"}
{"compound": "COc1ccc2c(c1)c(CC(=O)O)c(C)n2C(=O)c1ccc(Cl)cc1", "note": "[Indomethacin]", "reduction in cell viability": "< 0"}
{"compound": "N.N.O=C([O-])C[O-].[Pt+2]", "note": "[Nedaplatin]", "reduction in cell viability": "< 0"}
{"compound": "Cc1cc(OCCCS(C)(=O)=O)cc(C)c1-c1cccc(COc2ccc3c(c2)OC[C@H]3CC(=O)O)c1", "reduction in cell viability": "< 0"}
{"compound": "CC(C)c1onc(-c2c(Cl)cccc2Cl)c1COc1ccc(/C=C/c2cccc(C(=O)O)c2)c(Cl)c1", "reduction in cell viability": "< 0"}
{"compound": "COc1ccc(S(=O)(=O)Nc2cccnc2Nc2ccc(O)cc2)cc1", "reduction in cell viability": 62.8}
{"compound": "CCCCc1ncc(/C=C(\\Cc2cccs2)C(=O)O)n1Cc1ccc(C(=O)O)cc1", "note": "[Eprosartan mesylate]", "reduction in cell viability": 3.02}
{"compound": "CC(C)(C)c1cc(C(C)(C)C)c(NC(=O)c2c[nH]c3ccccc3c2=O)cc1O", "note": "[Ivacaftor]", "reduction in cell viability": "< 0"}
{"compound": "CC(C)Oc1cc(Nc2nc(N[C@@H](C)c3ccc(F)cn3)ncc2Cl)n[nH]1", "reduction in cell viability": "< 0"}
{"compound": "CC(C[N+](C)(C)C)OC(N)=O", "note": "(stereo not drawn) [Bethanechol chloride]", "reduction in cell viability": "< 0"}
{"compound": "CS(=O)(=O)c1cccc(CNc2nc(Nc3ccc4c(c3)CCC(=O)N4)ncc2C(F)(F)F)c1", "reduction in cell viability": "< 0"}
{"compound": "Cn1c(N2CCCCS2(=O)=O)nc(C(=O)NCc2ccc(F)cc2)c(O)c1=O", "reduction in cell viability": "< 0"}
{"compound": "O=C(Nc1cccc(C(F)(F)F)c1)Nc1cc(S(=O)(=O)NC2CC2)ccc1-c1ccsc1", "reduction in cell viability": "< 0"}
{"compound": "COc1ccc(-c2cc3nccn3c(Nc3ncccc3C(N)=O)n2)cc1OC", "reduction in cell viability": "< 0"}
{"compound": "CC(=O)NC[C@H]1CN(c2ccc(N3CCOCC3)c(F)c2)C(=O)O1", "note": "[Linezolid]", "reduction in cell viability": "< 0"}
